Measurements reported in PubChem BioAssay AID493014 (National Center for Advancing Translational Sciences (NCATS), 2011).
Where “and” joins values, the source holds several entries; their conditions need not be identical. Equal values may be shown once. This is one part of the list. Further columns of the screen follow, without active or inactive calls. The list favours compounds with an active or inconclusive main result. Words in brackets tell the shape of the fitted curve; partial curves, single points and poor fits give uncertain potencies.

Experiment: qHTS Assay to Find Inhibitors of Chronic Active B-Cell Receptor Signaling
Settings: ABC-DLBCL IkBa-CBG/CBR reporter, luminescence ratio (green luciferase fused to IkBa over red control in TMD8 lymphoma cells), 4 h
How it was run: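 Doxycycline induced both beetle luciferases in TMD8 lymphoma cells; IKK-driven degradation limits the IkappaBalpha-fused green signal, while red luminescence normalises for cell number and nonspecific effects. Compounds tested up to 46 uM, 4 hrs.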

[1] = measured here: CBR red luminescence, cell number
[2] = measured here: IkBa-CBG green luminescence

SMILES | AC50 [1] | AC50 [2]
CCOC(=O)c1cc(S(=O)(=O)NC2CCC(C)CC2)cn1C (stereo not given) | 35.5 µM [falling, partial curve, poor fit] | –
O=C(O)Cc1csc(-c2ccc(F)cc2)n1 | 11.2 µM [rising, partial curve, poor fit] | –
O=C(O)c1cc(N/N=C/c2ccc(N3CCOCC3)s2)ccc1Cl | 10.3 µM [falling, partial curve] | –
COc1cc(/C=C/c2nnc3c4ccccc4ncn23)cc(OC)c1OC | 29.1 µM [falling, single point] | –
Cc1ccc(NC(=O)c2noc3c2CCc2ccccc2-3)cc1 | 1.03 µM [falling, full curve] | –
CCCn1cnc2cc(NCc3cccc(OC)c3O)ccc21 | 11.2 µM [rising, partial curve, poor fit] | –
COc1ccc(C2NC(C(=O)O)Cc3c2[nH]c2ccccc32)cc1CN1CCN(c2ccc(F)cc2)CC1 (stereo not given) | 35.5 µM [falling, partial curve, poor fit] | –
O=C(O)c1cccc(-c2noc(-c3cccc(Cl)c3)n2)c1 | 461 nM [falling, full curve] and 1.16 µM [falling, full curve] | –
CSCCC(NS(=O)(=O)/C=C/c1ccccc1)C(=O)O (stereo not given) | 6.31 µM [rising, single point] | –
O=C(CSc1nc2ccccc2s1)Nc1nccs1 | 31.6 µM [falling, single point] | –
CN1C2CCC1CC(OC(c1ccccc1)c1ccccc1)C2 (stereo not given) | 3.98 µM [rising, single point] | –
Cc1ccc(NC(=S)NCC(C)CSc2ccc(Cl)cc2)cc1 (stereo not given) | 35.5 µM [falling, single point] | –
O=C(Cn1cnc2cc([N+](=O)[O-])ccc2c1=O)N(Cc1ccccc1)C1CCS(=O)(=O)C1 (stereo not given) | 8.91 µM [falling, partial curve, poor fit] | –
O=C(NNC(=O)c1cccs1)c1ccc(Br)cc1 | 35.5 µM [falling, single point] | –
Cc1noc(C)c1S(=O)(=O)N1CCC(C(=O)N2CCN(Cc3ccc4c(c3)OCO4)CC2)CC1 | 29.1 µM [falling, single point] | –
COc1ccc(C2CC(=O)Oc3cc(O)ccc32)cc1 (stereo not given) | 29.1 µM [rising, single point] | –
Cc1cc(NC(=O)Cn2nnc(-c3ccccc3N)n2)no1 | 32.6 µM [rising, single point] | –
CC1(C)CC(=O)C(C=NCCN2CCN(C(=O)C34CC5CC(CC(C5)C3)C4)CC2)=C(O)C1 | 29.1 µM [rising, single point] | –
Cc1ccc(NC(=O)C(Nc2cccc(C)c2)c2ccccc2)cc1 (stereo not given) | 29.1 µM [falling, single point] | –
Cc1ccc(C2CC(c3cccs3)=NN2C(=O)c2ccc(Br)o2)cc1 (stereo not given) | 0.082 µM [falling, full curve, poor fit] | –
O=C(O)c1cccc(-n2cccc2/C=C/[N+](=O)[O-])c1 | 35.5 µM [falling, single point] | 35.5 µM [rising, partial curve, poor fit]

SMILES | AC50 [1] | AC50 [2]
O=C(Nc1nnc(-c2ccc(Br)cc2)o1)c1cccc(N2C(=O)CCC2=O)c1 | 1.3 µM [falling, partial curve, poor fit] | –
CCCC(=O)Nc1ccc(C(=O)Nc2cccc(OC)c2)cc1 | – | 3.26 µM [rising, partial curve, poor fit]
Cc1ccc(-c2cc(C(=O)Nc3ccc(S(=O)(=O)Nc4onc(C)c4C)cc3)[nH]n2)c(O)c1 | 10 µM [falling, partial curve] | –
Brc1ccccc1-c1nnc(COc2ncnc3c2cnn3-c2ccccc2)o1 | 0.316 µM [falling, full curve, poor fit] | –
C/C(=N\NC(=O)c1ccc2c(c1)OCO2)c1ccc(O)cc1 | 17.8 µM [falling, partial curve, poor fit] | –
CCN1CC=C2C(C#N)=C(N)C(C#N)(C#N)C(CCc3ccccc3)C2C1 (stereo not given) | 5.62 µM [rising, single point] | –
COc1ccccc1CN1CCC(CNS(=O)(=O)c2cc(-c3cc(C)no3)ccc2C)CC1 | 15.8 µM [falling, single point] | –
COc1ccc(N(CC(=O)Nc2ccc3c(c2)OCO3)S(C)(=O)=O)c(OC)c1 | 11.2 µM [rising, single point] | –
COC(=O)c1ccc2c(=O)n(CCN3CCOCC3)c(=S)[nH]c2c1 | 2.31 µM [rising, partial curve, poor fit] | –
CCOc1ccc(/C=N/NC(=O)C(=O)N2CCCCCC2)c2ccccc12 | 35.5 µM [falling, single point] | –
CNc1nc2c(N)ncnc2n1[C@H]1O[C@@H](CO)[C@H](O)[C@@H]1O | – | 3.55 µM [falling, partial curve, poor fit]
COC(=O)c1ccc(NC(=O)CCc2nnc3ccc(N4CCC5(CC4)OCCO5)nn23)cc1 | 0.501 µM [rising, full curve, poor fit] | –
COC(=O)c1nc(N)sc1-c1ccc(Cl)cc1 | 2.82 µM [rising, partial curve, poor fit] | –
CC(C)CN1C(=O)c2ccccc2C1(O)Cc1ccccc1 (stereo not given) | 23.1 µM [rising, single point] | –
O=C(N/N=C/c1sc2ccccc2c1O)c1ccccc1 | 3.26 µM [falling, full curve] | –
O=C(N=C1N=C2C=CC=CN2Cc2ccccc21)c1ccc(S(=O)(=O)N2CCOCC2)cc1 | – | 11.2 µM [rising, partial curve, poor fit]
COc1cc2c(cc1OC)C(C)N(C(=O)c1cc3c(s1)-c1c(C)cccc1OC3)CC2 (stereo not given) | 29.1 µM [falling, single point] | –
CCOC(=O)C(NC(=O)c1ccccc1Cl)(Nc1sc2c(c1C(N)=O)CCC2)C(F)(F)F (stereo not given) | 29.1 µM [falling, single point] | –
NS(=O)(=O)c1ccc(CCNC(=O)c2ccc(C(=O)c3ccccc3)cc2)cc1 | 2 µM [falling, full curve, poor fit] | –
Cn1c(=O)n(C)c2cc(C(=O)c3ccccc3)ccc21 | 29.1 µM [falling, single point] | –
CNC(=O)C1CC(=O)N(CCc2ccc(OC)cc2)C(=Nc2ccc(OC)cc2)S1 (stereo not given) | 29.1 µM [rising, single point] | –

Whole records, quoted from the list. Values in the order: AC50 [1] | AC50 [2]
O=C(N/N=C/c1sc2ccccc2c1O)c1ccccc1 is listed as 3.26 µM [falling, full curve] | –
CCN1CC=C2C(C#N)=C(N)C(C#N)(C#N)C(CCc3ccccc3)C2C1 (stereo not given) is listed as 5.62 µM [rising, single point] | –
CCOc1ccc(/C=N/NC(=O)C(=O)N2CCCCCC2)c2ccccc12 is listed as 35.5 µM [falling, single point] | –

More entries follow.

SMILES | AC50 [1] | AC50 [2]
COc1cccc(NC(=O)[C@H](CC(C)C)NC(=O)N2CCn3c2nc2ccccc23)c1 | 11.2 µM [falling, partial curve] | –
Cc1ccc(NC(=O)COC(=O)C2CC(=O)N(Cc3ccccc3)C2)cc1S(=O)(=O)N(C)C (stereo not given) | 12.6 µM [rising, single point] | –
COc1ccccc1-c1nnc(NC(=O)c2ccc3c(c2)OCO3)s1 | 0.2 µM [falling, full curve, poor fit] | –
NC(=O)c1ccsc1NC(=O)COC(=O)c1ccc(Cl)cc1 | 9.2 µM [falling, partial curve, poor fit] | –
O=C(CCC(=O)c1cccs1)NCc1cccc(Cl)c1 | 5.17 µM [rising, single point] | –
CC(C)CCn1c(-c2nonc2N)nc2ccccc21 | – | 16.4 µM [rising, single point]
CCC(=O)N(Cc1cc2c(C)cc(C)cc2[nH]c1=O)C1CCCCC1 | 15.8 µM [rising, partial curve, poor fit] | –
O=C(NCC1COCCO1)c1cc(COc2c(F)cccc2F)on1 (stereo not given) | 4.47 µM [rising, full curve, poor fit] | –
Cc1ccc(S(=O)(=O)CCC(=O)Nc2ccc3c(c2)OCO3)cc1 | 7.31 µM [rising, partial curve, poor fit] | –
Nc1nn(-c2ccccc2)nc1C(=O)OCc1ccccc1F | 8.91 µM [falling, partial curve, poor fit] | –
COC(=O)C1=NN(c2ccccc2)C2(S1)S/C(=C\c1ccccc1)C(=O)N2c1ccccc1 (stereo not given) | 29.1 µM [rising, single point] | –
Cc1cccc(N(C)C(=O)C2CCN(S(=O)(=O)c3cccc4nonc34)CC2)c1 | 35.5 µM [falling, single point] | –
O=C(COC(=O)CNC(=O)c1ccccc1)NCCNC(=O)COC(=O)CNC(=O)c1ccccc1 | 2.31 µM [rising, single point] | –
COc1ccccc1C1=NC(c2ccccc2)CN1c1ccccc1 (stereo not given) | 14.1 µM [rising, single point] | –
CCn1c(NC(=O)c2ccc(F)cc2)c2ccccc2nc1=O | 29.1 µM [rising, single point] | –
CCOCCCNC(=O)c1ccc2c(c1)N(CC)C(=O)c1ccccc1S2=O (stereo not given) | 0.398 µM [rising, partial curve, poor fit] | –
CC(C)(C)c1ccc(C(=O)c2cn[nH]c2-c2ccccc2O)cc1 | 15.8 µM [falling, single point] | –
Cc1cc(NC(=O)c2cc(-c3ccccc3C)nc3ccccc23)no1 | 1.84 µM [falling, full curve, poor fit] | –
COc1ccc2nc(C)cc(Nc3ccc(N4CCN(C)CC4)cc3)c2c1 | 5.62 µM [falling, partial curve] | –
COc1cc(-c2nc3cnccn3c2Nc2ccc3c(c2)OCCO3)ccc1O | 16.4 µM [rising, partial curve, poor fit] | 20.6 µM [falling, single point]
COc1ccc(/C=C/C(=O)Oc2cccc(/C=N/NC(=O)COc3c(C)cccc3C)c2)cc1 | 2 µM [rising, partial curve, poor fit] | –
